These are yes or no findings as the source states them, for the method shown. In cells and extracts the contact can be indirect. Some entries that bind do so weakly or less than the wild type.

Protein sequences, listed by entry. Tags and fused reporters are not part of them.
UniProt O43707: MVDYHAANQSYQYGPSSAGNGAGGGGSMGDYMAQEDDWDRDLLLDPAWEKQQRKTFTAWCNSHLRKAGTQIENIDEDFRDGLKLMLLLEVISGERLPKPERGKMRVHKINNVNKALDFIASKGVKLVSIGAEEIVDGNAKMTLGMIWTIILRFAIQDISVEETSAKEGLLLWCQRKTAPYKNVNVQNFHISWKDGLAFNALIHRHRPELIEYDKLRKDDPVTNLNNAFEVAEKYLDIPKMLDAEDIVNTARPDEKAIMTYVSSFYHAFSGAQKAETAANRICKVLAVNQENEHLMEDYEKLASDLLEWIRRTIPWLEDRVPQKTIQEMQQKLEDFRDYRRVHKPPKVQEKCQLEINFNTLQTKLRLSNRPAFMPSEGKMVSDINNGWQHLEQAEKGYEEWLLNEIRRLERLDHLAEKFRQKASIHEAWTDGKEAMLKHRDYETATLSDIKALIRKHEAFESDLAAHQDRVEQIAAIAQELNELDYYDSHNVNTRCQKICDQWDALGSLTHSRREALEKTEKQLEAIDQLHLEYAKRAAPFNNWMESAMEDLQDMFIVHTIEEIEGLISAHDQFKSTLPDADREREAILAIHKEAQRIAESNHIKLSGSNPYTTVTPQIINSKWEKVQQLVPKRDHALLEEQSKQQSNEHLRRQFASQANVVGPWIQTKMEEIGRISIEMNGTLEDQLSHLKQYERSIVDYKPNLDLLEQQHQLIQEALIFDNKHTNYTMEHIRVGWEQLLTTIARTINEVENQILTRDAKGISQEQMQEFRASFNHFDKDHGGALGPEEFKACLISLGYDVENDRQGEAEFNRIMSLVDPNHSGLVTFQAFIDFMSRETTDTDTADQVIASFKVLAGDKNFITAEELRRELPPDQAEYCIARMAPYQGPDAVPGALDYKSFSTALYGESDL

Results on one substance are retold here after PMC4385842.

In the assay the target is T1, Caprin-1 (Cytoplasmic activation- and proliferation-associated protein 1) (human (endogenous in HONE-1)) (UniProt Q14444).
T1 sequence: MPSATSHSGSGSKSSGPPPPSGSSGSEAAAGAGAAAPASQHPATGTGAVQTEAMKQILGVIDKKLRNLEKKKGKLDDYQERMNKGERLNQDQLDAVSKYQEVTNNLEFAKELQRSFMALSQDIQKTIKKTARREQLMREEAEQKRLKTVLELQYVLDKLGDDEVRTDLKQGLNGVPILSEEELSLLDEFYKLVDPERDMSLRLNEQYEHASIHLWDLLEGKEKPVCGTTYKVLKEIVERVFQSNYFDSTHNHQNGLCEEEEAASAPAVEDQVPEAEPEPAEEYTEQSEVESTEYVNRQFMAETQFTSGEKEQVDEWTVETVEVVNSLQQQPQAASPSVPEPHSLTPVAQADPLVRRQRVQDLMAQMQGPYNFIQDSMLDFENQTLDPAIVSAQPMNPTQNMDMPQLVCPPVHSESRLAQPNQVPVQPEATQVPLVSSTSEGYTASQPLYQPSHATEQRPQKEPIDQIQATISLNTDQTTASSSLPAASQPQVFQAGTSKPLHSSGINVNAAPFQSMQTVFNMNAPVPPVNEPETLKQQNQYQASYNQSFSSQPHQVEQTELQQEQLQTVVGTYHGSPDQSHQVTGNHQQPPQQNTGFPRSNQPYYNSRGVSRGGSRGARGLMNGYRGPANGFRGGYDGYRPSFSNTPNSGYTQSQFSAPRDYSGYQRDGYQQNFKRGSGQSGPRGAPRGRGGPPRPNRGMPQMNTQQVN
In words: co-IP; anti-caprin-1 antibody (ProteinTech Group) on HONE-1 cell lysate in the presence of biotinylated tylophorine; immunoblot with the indicated antibodies.

Consider α-actinin-4 (from UniProt O43707 1-911), for which the binding entry is listed as “binds”.
